Our source for the survivor count and T/C values is PubChem BioAssay AID256 (DTP/NCI, 2004).

The list is a part of this screen's results and no random one: it is rich in T/C values a quarter to a half above the control, in often repeated tests (any T/C) and in doses without a T/C. Other doses and runs of a compound stand elsewhere. T/C gives the treated animals as a percentage of the vehicle group. Some doses have a count of surviving animals in place of a T/C: the source holds a T/C of zero for them, seemingly a mark for toxic or unscored doses. Some survivor counts are full or nearly so, which does not show that the dose was tolerated: survival well below the control is almost never listed, so the zero probably covers shortened survival too. Counts of survivors are from the toxicity check (mostly the fifth day) where no day follows; animals may have died later. Schedules are NCI's codes, read here as Q, the interval in days (D) or hours (H), X, the number of doses. For survival time, the PubChem record calls one and a half times the control and up active, and a quarter to a half above the control has no call in these data; cut-offs in other NCI protocols can differ. Some T/C values are followed by the survivors on the day toxicity was checked, most often the fifth; where none is given, no animal had died by that day.

In this assay the test system is CD2F1 mice, L1210 leukemia ip, survival T/C. Description: NCI In Vivo Anticancer Drug Screen. Data for tumor model L1210 Leukemia (intraperitoneal) in CD2F1 (CDF1) mice. The following applies: higher T/C = longer survival. The method in brief:
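Vehicle-treated tumor-bearing mice served as controls (C) for compound-treated mice (T). Reported figure is T divided by C.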

[1] abbreviates: T/C endpoint: mean survival time, dose: 100.0 mg/kg/injection, schedule: Q04DX003 (ip), vehicle: saline with Tween-80.
Where [2] appears, read: T/C endpoint: mean survival time, dose: 200.0 mg/kg/injection, schedule: Q04DX003 (ip), vehicle: saline with Tween-80.
[3] abbreviates: T/C endpoint: mean survival time, dose: 400.0 mg/kg/injection, schedule: Q04DX003 (ip), vehicle: saline with Tween-80.
[4] abbreviates: T/C endpoint: mean survival time, dose: 400.0 mg/kg/injection, schedule: Q01DX009 (ip), vehicle: saline with Tween-80.
Where [5] appears, read: T/C endpoint: mean survival time, dose: 50.0 mg/kg/injection, schedule: Q01DX009 (ip), vehicle: Klucel (hydroxypropylcellulose) (HPC).
Setting [6] is: T/C endpoint: mean survival time, dose: 100.0 mg/kg/injection, schedule: Q01DX009 (ip), vehicle: Klucel (hydroxypropylcellulose) (HPC).
The mark [7] stands for this setting: T/C endpoint: mean survival time, dose: 200.0 mg/kg/injection, schedule: Q01DX009 (ip), vehicle: Klucel (hydroxypropylcellulose) (HPC).
Where [8] appears, read: T/C endpoint: mean survival time, dose: 200.0 mg/kg/injection, schedule: Q01DX009 (ip), vehicle: saline with Tween-80.

For `O=C1C=CC(=O)N1c1ccccc1[N+](=O)[O-]`, the survivor count is reported as 1 of 6 (T/C endpoint: mean survival time, dose: 25.0 mg/kg/injection, schedule: Q04DX003 (ip), vehicle: saline with Tween-80); 0 of 6 under setting [1]; 0 of 6 under setting [2]; 0 of 6 under setting [3].

Regarding `C[N+](C)(Cc1ccccc1)c1ccccc1`, the survivor count (T/C endpoint: mean survival time, dose: 40.0 mg/kg/injection, schedule: Q01DX009 (ip), vehicle: saline) is 0 of 6.

On to `CCOC(=O)C(=O)C1CCNC1=O` (centres undefined), for which the survivor count reads like this: under setting [1], 6 of 6; under setting [2], 0 of 6; under setting [3], 0 of 6.

As to `COc1cc([C@@H]2c3cc4c(c(O)c3C[C@H]3COC(=O)[C@@H]32)OCO4)cc(OC)c1OC`, for the setting “T/C endpoint: mean survival time, dose: 1000.0 micrograms/kg/injection, schedule: Q01DX009 (ip), vehicle: saline”, the T/C was 126 % of control.

Regarding `CN(C)C1C(=O)C(C(=O)NP(=O)(NCCCO)N(CCCl)CCCl)=C(O)C2(O)C(=O)C3=C(O)c4c(O)cccc4C(C)(O)C3CC12` (centres undefined), the T/C was 148 % of control [4 of 6 alive] (T/C endpoint: mean survival time, dose: 500.0 mg/kg/injection, schedule: Q01DX001 (ip), vehicle: saline with Tween-80); 127 % of control (T/C endpoint: median survival time, dose: 25.0 mg/kg/injection, schedule: Q01DX009 (ip), vehicle: saline with Tween-80); 127 % of control (T/C endpoint: median survival time, dose: 50.0 mg/kg/injection, schedule: Q01DX009 (ip), vehicle: saline with Tween-80); 139 % of control (T/C endpoint: median survival time, dose: 100.0 mg/kg/injection, schedule: Q01DX009 (ip), vehicle: saline with Tween-80). The survivor count (T/C endpoint: median survival time, dose: 400.0 mg/kg/injection, schedule: Q01DX009 (ip), vehicle: saline with Tween-80) is on record as 2 of 6.

For the molecule `NC(=O)/C=C/C(N)=O`, under setting [4], the survivor count was 0 of 6.

Turning to `N#Cc1nccnc1Cl`, the survivor count under setting [3] was 5 of 6.

`COC1CCC2CCN(C)C(Cc3ccc(Oc4ccc(CC5C6CC(OC)CCC6CCN5C)cc4)cc3)C2C1` (centres undefined): the survivor count by setting is: (T/C endpoint: mean survival time, dose: 6.25 mg/kg/injection, schedule: Q04DX002 (ip), vehicle: saline with Tween-80) 2 of 3; (T/C endpoint: mean survival time, dose: 12.5 mg/kg/injection, schedule: Q04DX002 (ip), vehicle: saline with Tween-80) 0 of 3; (T/C endpoint: mean survival time, dose: 25.0 mg/kg/injection, schedule: Q04DX002 (ip), vehicle: saline with Tween-80) 0 of 3; (T/C endpoint: mean survival time, dose: 50.0 mg/kg/injection, schedule: Q04DX002 (ip), vehicle: saline with Tween-80) 0 of 3.

Take `CNc1ncnc2c1cnn2C1OC(CO)C(O)C1O` (centres undefined): the survivor count (T/C endpoint: mean survival time, dose: 100.0 mg/kg/injection, schedule: Q01DX005 (ip), vehicle: water) is recorded as 5 of 6 and the survivor count (T/C endpoint: mean survival time, dose: 200.0 mg/kg/injection, schedule: Q01DX005 (ip), vehicle: water) was 0 of 6.

Consider `CC(=O)N(C)N=Nc1ccc(C)cc1`, for which the T/C was 125 % of control (T/C endpoint: mean survival time, dose: 133.0 mg/kg/injection, schedule: Q04DX003 (ip), vehicle: other) and 128 % of control [5 of 6 alive] (T/C endpoint: mean survival time, dose: 300.0 mg/kg/injection, schedule: Q04DX003 (ip), vehicle: other).

Take `O=C(Nc1ccc(Cl)cc1)c1cccc([N+](=O)[O-])c1O`: the survivor count is listed as 0 of 3 under setting [5], 0 of 3 under setting [6] and 0 of 3 under setting [7].

As to `CC(CCOP(N)(=O)N(CCCl)CCCl)OCc1ccccc1` (centres undefined), the T/C was 133 % of control (T/C endpoint: mean survival time, dose: 200.0 mg/kg/injection, schedule: Q01DX001 (ip), vehicle: other); 132 % of control [5 of 6 alive] (T/C endpoint: mean survival time, dose: 400.0 mg/kg/injection, schedule: Q01DX001 (ip), vehicle: other, evaluated on day 30); 137 % of control (T/C endpoint: mean survival time, dose: 400.0 mg/kg/injection, schedule: Q01DX001 (ip), vehicle: other, evaluated on day 50).

For the molecule `NCCN1CCc2ccccc2C1`, the survivor count is recorded as 2 of 6 (T/C endpoint: mean survival time, dose: 100.0 mg/kg/injection, schedule: Q04DX003 (ip), vehicle: Klucel (hydroxypropylcellulose) (HPC)); 1 of 6 (T/C endpoint: mean survival time, dose: 200.0 mg/kg/injection, schedule: Q04DX003 (ip), vehicle: Klucel (hydroxypropylcellulose) (HPC)); 0 of 6 (T/C endpoint: mean survival time, dose: 400.0 mg/kg/injection, schedule: Q04DX003 (ip), vehicle: Klucel (hydroxypropylcellulose) (HPC)).

As for `CN(C)CCC(=O)c1cccc(O)c1`, the survivor count (T/C endpoint: mean survival time, dose: 400.0 mg/kg/injection, schedule: Q04DX002 (ip), vehicle: saline with Tween-80) is recorded as 0 of 3.

For the molecule `COC(=O)c1cccc2c1ccc1ccccc12`, the survivor count (T/C endpoint: mean survival time, dose: 300.0 mg/kg/injection, schedule: Q01DX001 (ip), vehicle: saline) is 0 of 6.

For `NC(CS(=O)c1ccc(Cl)cc1)C(=O)O` (centres undefined), the survivor count reads like this: (T/C endpoint: mean survival time, dose: 50.0 mg/kg/injection, schedule: Q01DX009 (ip), vehicle: saline with Tween-80) 3 of 6; (T/C endpoint: mean survival time, dose: 100.0 mg/kg/injection, schedule: Q01DX009 (ip), vehicle: saline with Tween-80) 3 of 6; under setting [8], 0 of 6.

Consider `O=S(=O)(O)O.[NH-]CC(=O)O.[NH-]CC(=O)O.[NH-]CC(=O)O.[NH-]CC(=O)O.[Pt+2].[Pt+2]`, for which the survivor count is 0 of 6 (T/C endpoint: mean survival time, dose: 100.0 mg/kg/injection, schedule: Q04DX003 (ip), vehicle: distilled water + Tween-80) and 0 of 6 (T/C endpoint: mean survival time, dose: 200.0 mg/kg/injection, schedule: Q04DX003 (ip), vehicle: distilled water + Tween-80).

For the molecule `COc1cc(NS(C)(=O)=O)ccc1Nc1c2ccccc2nc2cc(C(F)(F)F)c(N)cc12`, the T/C was 125 % of control (T/C endpoint: mean survival time, dose: 25.0 mg/kg/injection, schedule: Q01DX009 (ip), vehicle: Klucel (hydroxypropylcellulose) (HPC)); 125 % of control (T/C endpoint: mean survival time, dose: 50.0 mg/kg/injection, schedule: Q01DX001 (ip), vehicle: Klucel (hydroxypropylcellulose) (HPC)); 142 % of control under setting [5]; 136 % of control [4 of 6 alive] (T/C endpoint: mean survival time, dose: 100.0 mg/kg/injection, schedule: Q01DX001 (ip), vehicle: Klucel (hydroxypropylcellulose) (HPC)); 146 % of control under setting [6]. The survivor count is reported as 6 of 6 under setting [7] and 1 of 6 (T/C endpoint: mean survival time, dose: 400.0 mg/kg/injection, schedule: Q01DX009 (ip), vehicle: Klucel (hydroxypropylcellulose) (HPC)).

For the molecule `[Cl][Fe]([Cl])([Cl])[Cl].c1ccc(-c2cc(-c3ccccc3)[o+]c(-c3ccccc3)c2)cc1`, the survivor count is on record as 2 of 6 under setting [2] and 0 of 6 under setting [3].

In the case of `CCN(CC)Cc1cc(Nc2cc(C)nc(Nc3ccc(Cl)c(Cl)c3)n2)ccc1OC`, the survivor count is on record as 6 of 6 under setting [1], 0 of 6 under setting [2] and 1 of 6 under setting [3].

With `NC(=O)C(Cc1ccccc1)NC(=O)c1ccccc1` (centres undefined), the survivor count was 6 of 6 under setting [8] and 2 of 6 under setting [4].
